In publication PMC7566471, “A new perspective on the interaction between the Vg/VGLL1-3 proteins and the TEAD transcription factors” (Scientific Reports, 2020) one finds binding data, which are given here for one substance.

Chains of the proteins cited; added tags and fusions are not shown.
UniProt Q15561: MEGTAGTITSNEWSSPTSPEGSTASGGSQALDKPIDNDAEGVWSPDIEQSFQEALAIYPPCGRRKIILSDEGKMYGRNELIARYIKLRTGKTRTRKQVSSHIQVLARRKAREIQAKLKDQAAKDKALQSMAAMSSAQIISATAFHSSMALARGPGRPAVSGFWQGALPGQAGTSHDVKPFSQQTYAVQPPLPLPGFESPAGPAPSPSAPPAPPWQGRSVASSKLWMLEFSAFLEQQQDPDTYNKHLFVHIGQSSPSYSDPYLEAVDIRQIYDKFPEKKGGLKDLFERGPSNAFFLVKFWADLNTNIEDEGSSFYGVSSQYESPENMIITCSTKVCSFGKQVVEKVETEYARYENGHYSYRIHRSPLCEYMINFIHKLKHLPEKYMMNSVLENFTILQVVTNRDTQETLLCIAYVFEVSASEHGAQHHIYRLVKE

No constants are given. Whether binding was seen depends on the method and setting. Binding seen in cells or lysates may run through a third protein. A result given as binding can be weak or reduced; the word gives no strength.

The target of the assay is N-terminally V5-tagged wt^TEAD4 (full length) (human) (UniProt Q15561). The assay is described as follows: co-IP; V5-TEAD4 and (FLAG)3-VGLL2 co-transfected into HEK293FT YAP/TAZ double knockout cells; V5 immunoprecipitation, anti-FLAG Western blot; similar results in wild-type HEK293FT cells. Background: A western blot detects proteins with antibodies after separation by electrophoresis.

As to “(FLAG)3-delΩ^VGLL2 (full length with the Ω-loop deleted) (from UniProt Q8N8G2-1)”, the binding result is on record as “binds”.
